Experimental data taken from paper doi:10.1101/2020.05.03.075390.
No constants are given. Whether binding was seen depends on the method and setting. In cells and extracts the contact can be indirect. Here binding means that the protein was enriched with, or labelled near, the bait; the list need not be complete.

By UniProt entry, the sequences of proteins in these tests, tags left out.
UniProt Q96J94: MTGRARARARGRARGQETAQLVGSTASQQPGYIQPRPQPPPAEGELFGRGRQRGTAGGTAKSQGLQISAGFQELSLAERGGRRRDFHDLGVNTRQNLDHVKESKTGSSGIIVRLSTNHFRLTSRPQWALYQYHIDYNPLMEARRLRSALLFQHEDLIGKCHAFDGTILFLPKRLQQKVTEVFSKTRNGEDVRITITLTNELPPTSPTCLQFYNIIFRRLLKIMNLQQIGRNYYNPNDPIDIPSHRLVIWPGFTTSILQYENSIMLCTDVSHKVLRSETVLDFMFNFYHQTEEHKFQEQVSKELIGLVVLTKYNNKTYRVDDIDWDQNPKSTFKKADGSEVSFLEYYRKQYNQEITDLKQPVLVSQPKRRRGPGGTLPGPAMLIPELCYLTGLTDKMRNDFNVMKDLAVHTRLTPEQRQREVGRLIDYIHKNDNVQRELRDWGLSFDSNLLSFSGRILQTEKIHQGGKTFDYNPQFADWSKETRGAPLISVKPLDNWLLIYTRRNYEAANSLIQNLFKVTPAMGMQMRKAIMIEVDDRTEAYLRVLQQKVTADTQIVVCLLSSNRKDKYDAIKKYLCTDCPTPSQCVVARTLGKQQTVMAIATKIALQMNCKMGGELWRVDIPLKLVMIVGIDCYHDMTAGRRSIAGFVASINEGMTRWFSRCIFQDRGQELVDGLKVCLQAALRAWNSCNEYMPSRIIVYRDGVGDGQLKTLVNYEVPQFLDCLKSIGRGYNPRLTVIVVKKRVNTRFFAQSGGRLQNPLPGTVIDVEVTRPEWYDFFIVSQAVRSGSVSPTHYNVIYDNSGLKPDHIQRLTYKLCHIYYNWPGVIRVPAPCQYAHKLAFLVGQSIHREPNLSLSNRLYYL

Target: PIWIL1 (PIWI-Like 1) (human (endogenous in SNU-1 and AGS)) (UniProt Q96J94)
Assay: affinity purification with mass spectrometry

binding: binds
B1: UPF1 (Up-Frameshift-1) (protein, UniProt Q92900 1-1129)
chain: MSVEAYGPSSQTLTFLDTEEAELLGADTQGSEFEFTDFTLPSQTQTPPGGPGGPGGGGAGGPGGAGAGAAAGQLDAQVGPEGILQNGAVDDSVAKTSQLLAELNFEEDEEDTYYTKDLPIHACSYCGIHDPACVVYCNTSKKWFCNGRGNTSGSHIVNHLVRAKCKEVTLHKDGPLGETVLECYNCGCRNVFLLGFIPAKADSVVVLLCRQPCASQSSLKDINWDSSQWQPLIQDRCFLSWLVKIPSEQEQLRARQITAQQINKLEELWKENPSATLEDLEKPGVDEEPQHVLLRYEDAYQYQNIFGPLVKLEADYDKKLKESQTQDNITVRWDLGLNKKRIAYFTLPKTDSGNEDLVIIWLRDMRLMQGDEICLRYKGDLAPLWKGIGHVIKVPDNYGDEIAIELRSSVGAPVEVTHNFQVDFVWKSTSFDRMQSALKTFAVDETSVSGYIYHKLLGHEVEDVIIKCQLPKRFTAQGLPDLNHSQVYAVKTVLQRPLSLIQGPPGTGKTVTSATIVYHLARQGNGPVLVCAPSNIAVDQLTEKIHQTGLKVVRLCAKSREAIDSPVSFLALHNQIRNMDSMPELQKLQQLKDETGELSSADEKRYRALKRTAERELLMNADVICCTCVGAGDPRLAKMQFRSILIDESTQATEPECMVPVVLGAKQLILVGDHCQLGPVVMCKKAAKAGLSQSLFERLVVLGIRPIRLQVQYRMHPALSAFPSNIFYEGSLQNGVTAADRVKKGFDFQWPQPDKPMFFYVTQGQEEIASSGTSYLNRTEAANVEKITTKLLKAGAKPDQIGIITPYEGQRSYLVQYMQFSGSLHTKLYQEVEIASVDAFQGREKDFIILSCVRANEHQGIGFLNDPRRLNVALTRARYGVIIVGNPKALSKQPLWNHLLNYYKEQKVLVEGPLNNLRESLMQFSKPRKLVNTINPGARFMTTAMYDAREAIIPGSVYDRSSQGRPSSMYFQTHDQIGMISAGPSHVAAMNIPIPFNLVMPPMPPPGYFGQANGPAAGRGTPKGKTGRGGRQKNRFGLPGPSQTNLPNSQASQDVASQPFSQGALTQGYISMSQPSQMSQPGLSQPELSQDSYLGDEFKSQIDVALSQDSTYQGERAYQHGGVTGLSQY
